Experimental data: PubChem BioAssay AID1224830 (NIAID, 2016)
Purpose: 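Regulators of TLR4 signalling towards TNF-alpha in macrophage-like cells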 (primary screen). Cells: human THP-1 monocytic leukaemia cells, TNF dual-luciferase reporter clone, PMA-differentiated to macrophage-like cells. Knock-down reagent: siRNA pool against human genes, 50 nM. Time to read-out: LPS for 4 h, given about 3 days after siRNA transfection. Conditions: bacterial LPS (TLR4 ligand), 10 ng/ml. Read-out: 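Ratio of firefly to renilla light, scaled to the plate median and expressed as a robust z-score per replicate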. Reading the numbers: TNF reporter robust z-score: higher = stronger TNF reporter response to LPS. Rule for the call: 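a well is active when its z-score exceeds 2.8 or falls below -1.5; control wells carry no call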.
The deposit covers about 18,000 reagents; shown is a random part of them. Over the whole deposit, about 2,900 (16%) were called active. 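Calls are made per well; low scores hint the gene aids the LPS response, high scores that it dampens it.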 Repeated entries: four replicate wells of each siRNA pool.

With KIR3DX1, what was measured?
TNF reporter robust z-score: -0.28; Outcome: inactive

For KIR3DX1, how do the results read?
TNF reporter robust z-score: 0.46; Outcome: inactive

How did the screen score KIR3DX1?
TNF reporter robust z-score: -0.45; Outcome: inactive

What did the screen give for KIR3DX1?
TNF reporter robust z-score: 0.19; Outcome: inactive

For PTRH1 (peptidyl-tRNA hydrolase 1 homolog), how do the results read?
TNF reporter robust z-score: -0.83; Outcome: inactive

What did the screen give for PTRH1 (peptidyl-tRNA hydrolase 1 homolog)?
TNF reporter robust z-score: -0.33; Outcome: inactive

Which result is listed for PTRH1 (peptidyl-tRNA hydrolase 1 homolog)?
TNF reporter robust z-score: -0.5; Outcome: inactive

With PTRH1 (peptidyl-tRNA hydrolase 1 homolog), what does the deposit list?
TNF reporter robust z-score: 0.56; Outcome: inactive

For NOMO3 (NODAL modulator 3), how do the results read?
TNF reporter robust z-score: -0.94; Outcome: inactive

How did the screen score NOMO3 (NODAL modulator 3)?
TNF reporter robust z-score: -0.44; Outcome: inactive

How did the screen score NOMO3 (NODAL modulator 3)?
TNF reporter robust z-score: -0.62; Outcome: inactive

What did the screen give for NOMO3 (NODAL modulator 3)?
TNF reporter robust z-score: -0.73; Outcome: inactive

Reprinted from the entries so far (2 entries):
NOMO3 (NODAL modulator 3) | TNF reporter robust z-score: -0.62; Outcome: inactive
NOMO3 (NODAL modulator 3) | TNF reporter robust z-score: -0.73; Outcome: inactive

The listing continues.
For RNASE11 (ribonuclease A family member 11 (inactive)), what does the deposit list?
TNF reporter robust z-score: -0.93; Outcome: inactive

For RNASE11 (ribonuclease A family member 11 (inactive)), how do the results read?
TNF reporter robust z-score: 0.14; Outcome: inactive

For RNASE11 (ribonuclease A family member 11 (inactive)), how do the results read?
TNF reporter robust z-score: 0.21; Outcome: inactive

With GIT2 (GIT ArfGAP 2), what was measured?
TNF reporter robust z-score: -0.75; Outcome: inactive

What did the screen give for GIT2 (GIT ArfGAP 2)?
TNF reporter robust z-score: -0.56; Outcome: inactive

With GIT2 (GIT ArfGAP 2), how do the results read?
TNF reporter robust z-score: 0.34; Outcome: inactive

For GIT2 (GIT ArfGAP 2), what does the deposit list?
TNF reporter robust z-score: -0.07; Outcome: inactive
